Hit rate of the full screen: of about 53,000 sequences, about 3,700 (7%) were called active.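 How the source made its calls: active means gene knockdowns whose robust z-score for IL-1 alpha signal is at least 2 or at most -2, so actives lie on both sides; inactive means the rest.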 Some of the results follow.
assay: Components of the Cytosolic LPS Sensing Pathway: Gene Identification via Genome-wide siRNA Screen; details: RAW264.7 macrophages, IL-1a HTRF, actives lie on both sides, screened at 100 nM (by protocol), cells primed 5 h with Pam3CSK4 first;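 further: robust z of the log signal after scaling to non-targeting control siRNA wells of the plate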
How it was run: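 IL-1a HTRF of supernatants after 24 hour LipidA transfection of Pam3CSK4-primed (5 hours) RAW264.7 cells, 48h post-siRNA transfection (100 nM). Scores: percent of plate negative-control median, then log-based robust z-score.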

Question: For GGCCAUUUCCAGCUUGAGUTT against Dnaaf1, which z-score is on record?
Answer: inactive: -0.582

Question: Which z-score does the source give for GCUUCAAGCCAUCCGAAUATT against Cfap36 here?
Answer: inactive: 0.886

Question: With GGUACUAUUCAGUCCUUUATT against Gpr176 as the sequence, how does the z-score read?
Answer: inactive: -0.568

Question: With GGUGAAUAUACUGUAAUGATT against Gabra2 as the sequence, how does the z-score read?
Answer: inactive: -0.765

Question: Which z-score does the source give for CCUACUUAGUCCAGUUUAATT against Olfr735 here?
Answer: inactive: 0.366

Question: With GGGUUUUUCUGAAAAACAUTT against Nceh1 as the sequence, how does the z-score read?
Answer: inactive: 0.287

Question: For CCUCUUCAGCUUACAGUGGTT against Fjx1, which z-score is on record?
Answer: inactive: 0.017

Question: Which z-score does the source give for CCAAUCUCUACCGUCUCCUTT against Camp here?
Answer: inactive: -0.619

Question: With GGUUAUUCAUAUGGAACUGTT against Mapk9 as the sequence, how does the z-score read?
Answer: inactive: -1.37

Question: Which z-score does the source give for GGGCUGCUUUAAUAAAGAUTT against Pycr2 here?
Answer: inactive: 0.578

Question: For GGGUUCACGAAAGAGUAAATT against Clcn5, which z-score is on record?
Answer: inactive: -1.21

Question: With CGAAGUUUUGUUGAAAAGCTT against Rhobtb3 as the sequence, how does the z-score read?
Answer: inactive: -0.679

Question: For CCGUGAAAAUCAGUAAUUATT against Cacybp, which z-score is on record?
Answer: inactive: -0.546

Question: For GGUGUCCACGGUGGUUUGATT against Pfn1, which z-score is on record?
Answer: inactive: -0.268

Question: Which z-score does the source give for GGCCUUACAACAAAAUCUGTT against Chd9 here?
Answer: inactive: 0.898

Question: Which z-score does the source give for CCCACGGAGGCAAUAAAUATT against Crygn here?
Answer: inactive: -0.155

Question: Which z-score does the source give for GCUGUGUACUCUGCCUUGUTT against Olfr338 here?
Answer: inactive: 0.475

Question: For GCCCAUUGUUACCUUGUACTT against Klb, which z-score is on record?
Answer: active: -2.06

Question: With GCGUAUACCAUGCAGAUAUTT against Sigmar1 as the sequence, how does the z-score read?
Answer: inactive: 1.05

Question: For GGAAAUUGAUCAUUGACCATT against Ccdc65, which z-score is on record?
Answer: inactive: -0.683

Question: Which z-score does the source give for GGAAAAGACAAGCAUACGATT against Ano6 here?
Answer: inactive: -0.233

Question: With GGAGACCUUCAGCUUGGAATT against Zfp260 as the sequence, how does the z-score read?
Answer: inactive: 0.0537

Question: With GAGUCUAGACAGUAUGUUCTT against Swi5 as the sequence, how does the z-score read?
Answer: inactive: 1.15

Question: For GGAUCAUUUGCUUGACACUTT against Xkrx, which z-score is on record?
Answer: inactive: 1.08

Question: Which z-score does the source give for GCAUAGUGACCAUGGAUAATT against Olfr807 here?
Answer: inactive: 0.95

Question: For GUGUAUCCCAGGCUAUCACTT against Vmn1r19, which z-score is on record?
Answer: inactive: -1.17

Question: For GGAAACACCGGAAAUAAUCTT against Akap12, which z-score is on record?
Answer: inactive: 1.07

Question: Which z-score does the source give for GGCCUUGUGUUUAGAAAACTT against Piwil2 here?
Answer: inactive: -0.789

Question: Which z-score does the source give for CCAUCGUAGCAGAUCUUUCTT against Aaas here?
Answer: inactive: -1.08

Question: For GCAGUUACUUAUCAUCUGGTT against Inca1, which z-score is on record?
Answer: inactive: 0.00859
